PubChem BioAssay AID504774, Drosophila RNAi Screening Center – 2011

- Assay: 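Knock-downs that shift viability of MMS-exposed cells relative to untreated ones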 (primary screen)
- Cells: Drosophila Kc167 cells
- Reagents: long dsRNA against Drosophila genes, about 0.25 µg dsRNA per well
- Timing: about 6 days: 3 days knock-down, then 3 days with or without MMS
- Treatment: methyl methanesulphonate 0.004% (w/v) for 3 days after knock-down
- Detection: 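Viability in wells given MMS, read as ATP luminescence, normalised by quantiles plate by plate and averaged across replicates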
- Reading the numbers: mean viability with MMS: higher = more surviving cells after MMS
The deposit covers about 23,000 reagents; shown is an unselected part of those with a known target gene and a result. 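Values are quantile-normalised luminescence on an arbitrary scale; higher means more cells surviving MMS.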 Further read-outs or replicates are left out here. No sequences are given here.

With Su(var)2-10 (Suppressor of variegation 2-10) [DRSC07721], what was measured?
mean viability with MMS: 3.35e6

What did the screen give for unc-13 [DRSC17192]?
mean viability with MMS: 3.48e6

Which result is listed for unc-13 [DRSC17193]?
mean viability with MMS: 3.54e6

For unc-13 [DRSC17223], what was measured?
mean viability with MMS: 3.60e6

For l(2)37Cb (lethal (2) 37Cb) [DRSC02095], what does the deposit list?
mean viability with MMS: 3.53e6

What did the screen give for SelR (Selenoprotein R) [DRSC16071]?
mean viability with MMS: 3.41e6

What is on record for Ugt37C1 (UDP-glycosyltransferase family 37 member C1) [DRSC07416]?
mean viability with MMS: 3.55e6

Which result is listed for caly (calypso) [DRSC07182]?
mean viability with MMS: 3.47e6

With CG13053 [DRSC09934], what was measured?
mean viability with MMS: 3.53e6

For Rtnl1 (Reticulon-like1) [DRSC00851], how do the results read?
mean viability with MMS: 3.36e6

With Rtnl1 (Reticulon-like1) [DRSC02684], how do the results read?
mean viability with MMS: 3.81e6

For Rtnl1 (Reticulon-like1) [DRSC03122], what does the deposit list?
mean viability with MMS: 3.97e6

For Rtnl1 (Reticulon-like1) [DRSC21698], what does the deposit list?
mean viability with MMS: 3.44e6

What did the screen give for Sec71 (Secretory 71) [DRSC01893]?
mean viability with MMS: 3.90e6

How did the screen score CG34174 [DRSC00101]?
mean viability with MMS: 3.61e6

How did the screen score CG32373 [DRSC08895]?
mean viability with MMS: 3.49e6

With Atet (ABC transporter expressed in trachea) [DRSC00263], what was measured?
mean viability with MMS: 3.33e6

How did the screen score Psf3 (Partner of Sld Five 3) [DRSC18216]?
mean viability with MMS: 3.55e6

For Psf3 (Partner of Sld Five 3) [DRSC21487], what was measured?
mean viability with MMS: 3.57e6

What did the screen give for CG14260 [DRSC14755]?
mean viability with MMS: 3.54e6

Which result is listed for dlp (dally-like) [DRSC10281]?
mean viability with MMS: 3.30e6

How did the screen score dlp (dally-like) [DRSC10472]?
mean viability with MMS: 3.36e6

How did the screen score CG15322 [DRSC20680]?
mean viability with MMS: 3.22e6

How did the screen score CG15322 [DRSC23023]?
mean viability with MMS: 3.50e6

3 entries from above, reformatted.
gene knocked down | DRSC id | mean viability with MMS
Atet (ABC transporter expressed in trachea) | DRSC00263 | 3.33e6
Psf3 (Partner of Sld Five 3) | DRSC18216 | 3.55e6
Psf3 (Partner of Sld Five 3) | DRSC21487 | 3.57e6
